From US20140271467A1 (Stanford University, published 2014)
These are yes or no findings as the source states them, for the method shown. Some entries that bind do so weakly or less than the wild type.

Target: T1, biotinylated human CD20 extracellular loop peptide (amino acids 165-185) (human)
T1 sequence (peptide, biotin at the C-terminus (printed as SEQ ID NO, 1-biotin)): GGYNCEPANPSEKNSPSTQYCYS
Assay: selection from the G4 library against the CD20 peptide

B1: FN3CD20 clone displayed on the yeast surface (designed binder, not shown: large carriers)
chain: ASVSDVPRDLEVVAATPTSLLISWCRQRCADSYRITYGETGGNSPVQEFTVPGSWKTATISGLKPGVDYTITVYVVTHYYGWDRYSHPISINYRTGSHHHHHH
notes: also called one clone; this clone
binding: binds
